According to article PMC8795376:
No constants are given. Whether binding was seen depends on the method and setting. For some of these results: In cells and extracts the contact can be indirect. Some results given as binding are weak or reduced against the parent protein; the word gives no strength. For some of these results: Where a sequence is shown, tags or fusion partners need not be part of it.

Chains of the proteins cited; added tags and fusions are not shown. Residues count along the entry.
UniProt O43567, residues 35-381: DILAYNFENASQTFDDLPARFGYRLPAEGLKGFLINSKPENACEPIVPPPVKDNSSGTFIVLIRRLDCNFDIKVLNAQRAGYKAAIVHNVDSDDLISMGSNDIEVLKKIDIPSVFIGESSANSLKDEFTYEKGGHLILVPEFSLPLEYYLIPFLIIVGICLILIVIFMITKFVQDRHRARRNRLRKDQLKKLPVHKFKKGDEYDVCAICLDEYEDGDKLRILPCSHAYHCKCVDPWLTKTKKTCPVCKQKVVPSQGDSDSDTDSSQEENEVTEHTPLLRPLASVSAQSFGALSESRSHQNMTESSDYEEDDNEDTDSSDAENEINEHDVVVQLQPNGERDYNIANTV

Experiments:
[1] = target: FLAG-GAL9 (galectin-9) (human) (UniProt O00182); experiment: co-IP; HepG2 cells expressing FLAG-GAL9 and the indicated HaloTag-fused proteins; lysates precipitated with anti-FLAG antibody, immunoblotting
HaloTag-fused RNF13 = HaloTag-fused RNF13 (UniProt O43567); experiment: co-IP; HepG2 cells expressing the indicated proteins (HT-RNF13, wild-type or CRD-deleted GAL9), precipitated with anti-HT antibody, immunoblotting
[2] = target: GAL9 (galectin-9), recombinant (UniProt O00182); experiment: pull-down; in vitro pull-down with recombinant HBc and GAL9 incubated with viperin; anti-HBc antibody; 37 °C, 1 h, Tris buffer pH 7.5; both purified
[3] = target: GFP-GAL9 (galectin-9) (human) (UniProt O00182); experiment: co-IP; HepG2 cells expressing viperin truncated mutants and HA-HBc or GFP-GAL9; lysates precipitated with anti-HA or anti-GFP antibodies, immunoblotting

With “HaloTag-fused p62 (SQSTM1) (from UniProt Q13501 1-440)” the binding [1] was “binds”.

In the case of “p62 (SQSTM1) found with HT-RNF13 (from UniProt Q13501 1-440)”, the binding (HaloTag-fused RNF13) is reported as “binds”.

B1: viperin, recombinant (protein, UniProt Q8WXG1 1-361)
chain: MWVLTPAAFAGKLLSVFRQPLSSLWRSLVPLFCWLRATFWLLATKRRKQQLVLRGPDETKEEEEDPPLPTTPTSVNYHFTRQCNYKCGFCFHTAKTSFVLPLEEAKRGLLLLKEAGMEKINFSGGEPFLQDRGEYLGKLVRFCKVELRLPSVSIVSNGSLIRERWFQNYGEYLDILAISCDSFDEEVNVLIGRGQGKKNHVENLQKLRRWCRDYRVAFKINSVINRFNVEEDMTEQIKALNPVRWKVFQCLLIEGENCGEDALREAERFVIGDEEFERFLERHKEVSCLVPESNQKMKDSYLILDEYMRFLNCRKGRKDPSKSILDVGVEEAIKFSGFDEKMFLKRGGKYIWSKADLKLDW
In the case of B1, the binding [2] is reported as “binds”.

B2: HaloTag-fused viperin (protein, UniProt Q8WXG1 1-361)
chain: B1 chain
In the case of B2, the binding [3] is reported as “binds”.
